Primary screen of a compound library

Chains of the proteins cited; added tags and fusions are not shown.
UniProt E9BF75, entry or part of it: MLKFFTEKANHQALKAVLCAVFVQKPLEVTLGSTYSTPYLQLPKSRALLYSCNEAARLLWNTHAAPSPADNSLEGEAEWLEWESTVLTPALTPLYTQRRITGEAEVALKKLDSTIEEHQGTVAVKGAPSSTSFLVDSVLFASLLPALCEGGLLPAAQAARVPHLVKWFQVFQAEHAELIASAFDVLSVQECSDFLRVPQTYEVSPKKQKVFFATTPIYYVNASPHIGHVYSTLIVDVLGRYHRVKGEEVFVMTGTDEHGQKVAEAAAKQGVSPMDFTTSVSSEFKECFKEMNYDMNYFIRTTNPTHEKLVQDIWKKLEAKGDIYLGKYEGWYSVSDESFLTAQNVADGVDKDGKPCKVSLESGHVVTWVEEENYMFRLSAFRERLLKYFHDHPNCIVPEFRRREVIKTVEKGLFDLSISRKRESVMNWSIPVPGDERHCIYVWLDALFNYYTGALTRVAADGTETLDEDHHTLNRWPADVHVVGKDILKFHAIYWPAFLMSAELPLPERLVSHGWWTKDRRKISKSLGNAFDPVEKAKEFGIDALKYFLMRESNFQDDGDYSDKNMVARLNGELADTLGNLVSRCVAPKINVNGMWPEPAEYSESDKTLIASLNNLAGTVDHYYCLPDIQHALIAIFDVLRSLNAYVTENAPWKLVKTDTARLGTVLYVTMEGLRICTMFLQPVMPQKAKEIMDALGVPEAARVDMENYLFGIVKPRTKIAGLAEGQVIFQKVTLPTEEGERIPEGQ

LdMetRS: 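Methionyl-tRNA synthetase (putative), Leishmania donovani (UniProt E9BF75). Primary screen of methionyl-tRNA synthetase; the read-out is not stated. The test concentration is not given. Values are per cent inhibition. Size under these conditions: about 68,000 compounds, about 24 of them at 50% or above in at least one test.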
Mtb heat-shock: 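Assay on Mycobacterium tuberculosis, filed only as a heat shock assay from Cornell; the read-out is not stated. The concentration is filed as 10 mM, unlikely as a test dose, so the dose is not known. The record gives no direction; compounds that gave an IC50 in retests scored well above the rest, so higher reads as stronger inhibition. About 69,000 compounds were tested under these conditions; 1.4% (about 930) showed 50% or more at least once.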

Results are percentages, as filed.
How 0% and 100% were set is not recorded. Most values in the screen are low, and negative values occur.
Compounds were drawn at random from those tested, without regard to their results.

SMILES: CC(O)CN1CCN(C(=O)c2ccc(N(C)C)nn2)CC1 (centres unmarked)
LdMetRS: 5.263
Mtb heat-shock: 15.13

SMILES: COc1cccc(CNC(C)c2ccc(-n3ccnc3)cc2)c1O (centres unmarked)
LdMetRS: 20.64
Mtb heat-shock: -20.05

SMILES: CCc1nnc2n1CC(CNCc1nc(-c3ccsc3)no1)CC2 (centres unmarked)
LdMetRS: 6.534
Mtb heat-shock: 20.32

SMILES: Cc1ccccc1CN1C[C@@H]2CC[C@H](C1)N(CC1CCC1)C2=O
LdMetRS: 9.365

SMILES: [H][C@@]12CCCO[C@]1([H])[C@H](N(C)Cc1ccco1)CN(C(=O)c1ccoc1C)C2
Mtb heat-shock: -32.64

SMILES: COC(=O)CNC(=O)c1sc(-c2ccc(Cl)s2)nc1C
LdMetRS: 17.46
Mtb heat-shock: 24.81

SMILES: CN(Cc1ccccn1)C1CCCN(c2cccnn2)C1 (centres unmarked)
LdMetRS: 1.534
Mtb heat-shock: -13.03

SMILES: Cc1cccc(OCCC(=O)N2CCCN(C(N)=O)CC2)c1C
LdMetRS: 0.4695
Mtb heat-shock: -1.618

SMILES: CNC1CCCN(Cc2noc(C3CC3)n2)C1.Cl (centres unmarked)
Mtb heat-shock: -14.72

SMILES: Cc1nn(C)c(Cl)c1C1CCCN1CC(=O)NC1CCCC1 (centres unmarked)
LdMetRS: 9.399
Mtb heat-shock: -11.06

SMILES: Cc1nn(C(C)C)c2cnn(CC(=O)N3CCSCC3)c12
LdMetRS: 5.744
Mtb heat-shock: 0.5375

SMILES: Cn1cccc1CN1CCC2(CC1)CN(c1ccccc1)C(=O)CO2.O=C(O)C(F)(F)F
Mtb heat-shock: -6.254

SMILES: CC(=O)N1CCN(Cc2csc(-c3cnn(C)c3)n2)CC1
LdMetRS: 12.24
Mtb heat-shock: -3.415

SMILES: CC(C)C1CN(C(=O)c2csc(CN(C)C)n2)CCC(=O)N1CC1CC1 (centres unmarked)
LdMetRS: 8.906
Mtb heat-shock: -7.933

SMILES: Cc1ccc(N2CC[C@@H]3CN(Cc4cc[nH]n4)C[C@@H]3C2)nn1
LdMetRS: 6.569

SMILES: COc1ccc2[nH]c(C(=O)NCC3(N)CCCC3)cc2c1
LdMetRS: 12.5
Mtb heat-shock: 12.07

SMILES: COc1ccc(Cc2noc(C3=NN(C)C(=O)CC3)n2)cc1OC
LdMetRS: 8.906
Mtb heat-shock: 2.85

SMILES: O=C1N(Cc2cccnc2)CCC12CCCNC2 (centres unmarked)
LdMetRS: -1.01
Mtb heat-shock: -27.28

SMILES: Cc1ccc(CN(CCCn2ccnc2)Cc2cnc(N(C)C)nc2)s1
LdMetRS: 9.646

SMILES: CC(=O)N1CCC[C@@H](NCc2ccc(F)cc2)[C@@H]1c1ccc(C)s1
LdMetRS: 14.84
Mtb heat-shock: 15.69

SMILES: CN(C)C1COC2(CCN(C(=O)c3cccnc3)CC2)C1 (centres unmarked)
LdMetRS: 10.56
Mtb heat-shock: -4.071

SMILES: COc1ccccc1C(C)CNC(=O)c1[nH]ncc1Br (centres unmarked)
LdMetRS: 11.59
Mtb heat-shock: 4.003

Once more, the final 2:

{"smiles": "CN(C)C1COC2(CCN(C(=O)c3cccnc3)CC2)C1", "stereo": "centres unmarked", "LdMetRS": 10.56, "Mtb heat-shock": -4.071}
{"smiles": "COc1ccccc1C(C)CNC(=O)c1[nH]ncc1Br", "stereo": "centres unmarked", "LdMetRS": 11.59, "Mtb heat-shock": 4.003}

From ChEMBL document CHEMBL3988442, “University of Dundee, Small-Polar-MMV Screening Library” (2021).